Reference: patent US20250074896A1, “ARYLTETRAHYDROPYRIDAZINE DERIVATIVE OR SALT THEREOF AND INSECTICIDAL AGENT CONTAINING THE COMPOUND AND METHOD FOR USING SAME” (NIHON NOHYAKU CO., LTD., priority 2021, published 2025)
Some of these results come from one statement about several compounds together.

Key:
Type in all cases: in vivo
[1] = system: Diamondback moth (Plutella xylostella); assay: Insecticidal test on diamondback moth (dip treatment of Chinese cabbage seedlings with laid eggs); conditions: dip about 30 seconds, 6 days after treatment, 25° C.
[2] = system: Small Brown Planthopper (Laodelphax striatellus); assay: Insecticidal test on small brown planthopper (dipped rice seedlings, 3rd-instar larvae); conditions: rice seedlings dipped 30 seconds, 8 days after inoculation
[3] = system: Western Flower Thrips (Frankliniella occidentalis); assay: Insecticidal test on western flower thrips (kidney bean leaf pieces, hatched larvae); conditions: 4 days after the treatment

COC(=O)N1C(=O)C(C(=O)Nc2ccc(C)cc2F)=C(O)CN1c1cnc(C#N)c(Cl)c1 [3-480]
A (the mortality rate is 100%): insecticidal efficacy (corrected mortality rate) against diamondback moth ([1]; 50 ppm) | insecticidal efficacy (corrected mortality rate) against diamondback moth ([1]; 500 ppm) | insecticidal efficacy (corrected mortality rate) against small brown planthopper ([2]; 500 ppm) | insecticidal efficacy (corrected mortality rate) against western flower thrips ([3]; 50 ppm) | insecticidal efficacy (corrected mortality rate) against western flower thrips ([3]; 500 ppm)

O=C(Nc1ccc(F)cc1)C1=C(O)CN(c2ccc(C(F)(F)F)nc2)N(C(=O)Oc2ccc([N+](=O)[O-])cc2)C1=O [3-360]
A (the mortality rate is 100%): insecticidal efficacy (corrected mortality rate) against diamondback moth ([1]; 50 ppm) | insecticidal efficacy (corrected mortality rate) against diamondback moth ([1]; 500 ppm) | insecticidal efficacy (corrected mortality rate) against small brown planthopper ([2]; 50 ppm) | insecticidal efficacy (corrected mortality rate) against small brown planthopper ([2]; 500 ppm) | insecticidal efficacy (corrected mortality rate) against western flower thrips ([3]; 50 ppm) | insecticidal efficacy (corrected mortality rate) against western flower thrips ([3]; 500 ppm)

CC(C)OC(=O)N1C(=O)C(C(=O)Nc2ccc(F)cc2)=C(O)CN1c1ccc(C#N)nc1 [3-267]
A (the mortality rate is 100%): insecticidal efficacy (corrected mortality rate) against diamondback moth ([1]; 50 ppm) | insecticidal efficacy (corrected mortality rate) against diamondback moth ([1]; 500 ppm) | insecticidal efficacy (corrected mortality rate) against small brown planthopper ([2]; 50 ppm) | insecticidal efficacy (corrected mortality rate) against small brown planthopper ([2]; 500 ppm) | insecticidal efficacy (corrected mortality rate) against western flower thrips ([3]; 50 ppm) | insecticidal efficacy (corrected mortality rate) against western flower thrips ([3]; 500 ppm)

CC(C)COC(=O)N1C(=O)C(C(=O)Nc2ccc(F)cc2)=C(O)CN1c1ccc(C(F)(F)F)nc1 [3-270]
A (the mortality rate is 100%): insecticidal efficacy (corrected mortality rate) against diamondback moth ([1]; 50 ppm) | insecticidal efficacy (corrected mortality rate) against diamondback moth ([1]; 500 ppm) | insecticidal efficacy (corrected mortality rate) against small brown planthopper ([2]; 50 ppm) | insecticidal efficacy (corrected mortality rate) against small brown planthopper ([2]; 500 ppm) | insecticidal efficacy (corrected mortality rate) against western flower thrips ([3]; 50 ppm) | insecticidal efficacy (corrected mortality rate) against western flower thrips ([3]; 500 ppm)

COC(=O)N1C(=O)C(C(=O)Nc2ccccc2F)=C(O)CN1c1cnc(C#N)c(Cl)c1 [3-461]
A (the mortality rate is 100%): insecticidal efficacy (corrected mortality rate) against diamondback moth ([1]; 50 ppm) | insecticidal efficacy (corrected mortality rate) against diamondback moth ([1]; 500 ppm) | insecticidal efficacy (corrected mortality rate) against small brown planthopper ([2]; 50 ppm) | insecticidal efficacy (corrected mortality rate) against small brown planthopper ([2]; 500 ppm) | insecticidal efficacy (corrected mortality rate) against western flower thrips ([3]; 50 ppm) | insecticidal efficacy (corrected mortality rate) against western flower thrips ([3]; 500 ppm)

CCNC(=O)N1C(=O)C(C(=O)Nc2ccc(F)cc2)=C(O)CN1c1ccc(Br)cn1 [3-42]
A (the mortality rate is 100%): insecticidal efficacy (corrected mortality rate) against diamondback moth ([1]; 50 ppm) | insecticidal efficacy (corrected mortality rate) against diamondback moth ([1]; 500 ppm) | insecticidal efficacy (corrected mortality rate) against small brown planthopper ([2]; 50 ppm) | insecticidal efficacy (corrected mortality rate) against small brown planthopper ([2]; 500 ppm) | insecticidal efficacy (corrected mortality rate) against western flower thrips ([3]; 50 ppm) | insecticidal efficacy (corrected mortality rate) against western flower thrips ([3]; 500 ppm)

COCCOC(=O)N1C(=O)C(C(=O)Nc2ccc(F)cc2)=C(S(C)(=O)=O)CN1c1ccc(C(F)(F)F)nc1 [5-16]
A (the mortality rate is 100%): insecticidal efficacy (corrected mortality rate) against diamondback moth ([1]; 50 ppm) | insecticidal efficacy (corrected mortality rate) against diamondback moth ([1]; 500 ppm) | insecticidal efficacy (corrected mortality rate) against small brown planthopper ([2]; 50 ppm) | insecticidal efficacy (corrected mortality rate) against small brown planthopper ([2]; 500 ppm) | insecticidal efficacy (corrected mortality rate) against western flower thrips ([3]; 50 ppm) | insecticidal efficacy (corrected mortality rate) against western flower thrips ([3]; 500 ppm)

Cc1cc(NC(=O)C2=C(O)CN(c3ccc(Cl)cn3)NC2=O)ccc1F [1-94]
A (the mortality rate is 100%): insecticidal efficacy (corrected mortality rate) against diamondback moth ([1]; 50 ppm) | insecticidal efficacy (corrected mortality rate) against diamondback moth ([1]; 500 ppm) | insecticidal efficacy (corrected mortality rate) against small brown planthopper ([2]; 50 ppm) | insecticidal efficacy (corrected mortality rate) against small brown planthopper ([2]; 500 ppm) | insecticidal efficacy (corrected mortality rate) against western flower thrips ([3]; 50 ppm) | insecticidal efficacy (corrected mortality rate) against western flower thrips ([3]; 500 ppm)

COC(=O)N1C(=O)C(C(=S)Nc2ccc(F)cc2)=C(O)CN1c1cnc(C#N)c(Cl)c1 [4-53]
A (the mortality rate is 100%): insecticidal efficacy (corrected mortality rate) against diamondback moth ([1]; 50 ppm) | insecticidal efficacy (corrected mortality rate) against diamondback moth ([1]; 500 ppm) | insecticidal efficacy (corrected mortality rate) against small brown planthopper ([2]; 50 ppm) | insecticidal efficacy (corrected mortality rate) against small brown planthopper ([2]; 500 ppm) | insecticidal efficacy (corrected mortality rate) against western flower thrips ([3]; 50 ppm) | insecticidal efficacy (corrected mortality rate) against western flower thrips ([3]; 500 ppm)

COC(=O)N1C(=O)C(C(=S)Nc2ccccc2)=C(O)CN1c1ccc(C#N)nc1 [4-87]
A (the mortality rate is 100%): insecticidal efficacy (corrected mortality rate) against diamondback moth ([1]; 500 ppm) | insecticidal efficacy (corrected mortality rate) against small brown planthopper ([2]; 50 ppm) | insecticidal efficacy (corrected mortality rate) against small brown planthopper ([2]; 500 ppm) | insecticidal efficacy (corrected mortality rate) against western flower thrips ([3]; 50 ppm) | insecticidal efficacy (corrected mortality rate) against western flower thrips ([3]; 500 ppm)

COC(=O)N1C(=O)C(C(=O)Nc2cc(F)c(F)c(F)c2)=C(O)CN1c1cnc(C#N)c(C)c1 [3-536]
A (the mortality rate is 100%): insecticidal efficacy (corrected mortality rate) against diamondback moth ([1]; 50 ppm) | insecticidal efficacy (corrected mortality rate) against diamondback moth ([1]; 500 ppm) | insecticidal efficacy (corrected mortality rate) against small brown planthopper ([2]; 50 ppm) | insecticidal efficacy (corrected mortality rate) against small brown planthopper ([2]; 500 ppm) | insecticidal efficacy (corrected mortality rate) against western flower thrips ([3]; 50 ppm) | insecticidal efficacy (corrected mortality rate) against western flower thrips ([3]; 500 ppm)

COC(=O)N1C(=O)C(C(=S)Nc2ccc(F)cc2)=C([O-])CN1c1ccc(C#N)nc1.[Na+] [4-143]
A (the mortality rate is 100%): insecticidal efficacy (corrected mortality rate) against diamondback moth ([1]; 50 ppm) | insecticidal efficacy (corrected mortality rate) against diamondback moth ([1]; 500 ppm) | insecticidal efficacy (corrected mortality rate) against small brown planthopper ([2]; 50 ppm) | insecticidal efficacy (corrected mortality rate) against small brown planthopper ([2]; 500 ppm) | insecticidal efficacy (corrected mortality rate) against western flower thrips ([3]; 50 ppm) | insecticidal efficacy (corrected mortality rate) against western flower thrips ([3]; 500 ppm)

N#Cc1ccc(N2CC(O)=C(C(=O)Nc3cc(F)c(F)c(F)c3)C(=O)N2)cn1 [1-372]
A (the mortality rate is 100%): insecticidal efficacy (corrected mortality rate) against diamondback moth ([1]; 50 ppm) | insecticidal efficacy (corrected mortality rate) against diamondback moth ([1]; 500 ppm) | insecticidal efficacy (corrected mortality rate) against small brown planthopper ([2]; 50 ppm) | insecticidal efficacy (corrected mortality rate) against small brown planthopper ([2]; 500 ppm) | insecticidal efficacy (corrected mortality rate) against western flower thrips ([3]; 50 ppm) | insecticidal efficacy (corrected mortality rate) against western flower thrips ([3]; 500 ppm)
